Literature values as cited in patent US20160151298A1, “DOCETAXEL POLYMERIC NANOPARTICLES AND METHODS OF TREATING CANCERS USING SAME” (BIND THERAPEUTICS, INC., priority 2013, published 2016).

CC(=O)O[C@@]12CO[C@@H]1C[C@H](O)[C@@]1(C)C(=O)[C@H](O)C3=C(C)[C@@H](OC(=O)[C@H](O)[C@@H](NC(=O)OC(C)(C)C)c4ccccc4)C[C@@](O)([C@@H](OC(=O)c4ccccc4)[C@H]21)C3(C)C [docetaxel anhydrous, (2R,3S)—N-carboxy-3-phenylisoserine, N-tert-butyl ester, 13-ester with 5-20-epoxy-1,2,4,7,10,13-hexahydroxytax-11-en-9-one 4-acetate 2-benzoate]
Solubility in water: practically insoluble in water
